Measurements reported in PMC9065199.
No constants are given. Whether binding was seen depends on the method and setting. For some of these results: Binding seen in cells or lysates may run through a third protein. Some entries that bind do so weakly or less than the wild type. For some of these results: Where a sequence is shown, tags or fusion partners need not be part of it.

Amino acid sequences for entries named in this document (tags omitted). Residues count along the entry.
UniProt O95299, residues 36-355: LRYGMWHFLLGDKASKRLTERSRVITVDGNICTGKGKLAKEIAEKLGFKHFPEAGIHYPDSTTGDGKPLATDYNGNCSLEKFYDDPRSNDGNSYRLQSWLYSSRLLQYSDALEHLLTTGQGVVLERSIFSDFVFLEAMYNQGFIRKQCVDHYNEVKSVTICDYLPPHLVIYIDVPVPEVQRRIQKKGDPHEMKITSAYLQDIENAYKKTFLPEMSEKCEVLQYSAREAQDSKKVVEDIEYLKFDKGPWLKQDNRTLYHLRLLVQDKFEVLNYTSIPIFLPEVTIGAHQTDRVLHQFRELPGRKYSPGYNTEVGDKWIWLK

How the values were obtained:
AGK peptide 2 (93M-120I) = target: T1, AGK peptide 2 (93M-120I) (UniProt Q53H12); assay: ELISA; synthetic AGK peptides labelled with biotin at the N-terminal, tested against NDUFS2 and NDUFA10 (n = 6)
T1 sequence (peptide, biotin at the N-terminal): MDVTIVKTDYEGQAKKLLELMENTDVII

AGK peptide 1 (59Q-92G) = target: T2, AGK peptide 1 (59Q-92G) (UniProt Q53H12); assay: as above
T2 sequence (peptide, biotin at the N-terminal): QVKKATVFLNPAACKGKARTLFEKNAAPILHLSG

[1] = target: T3, AGK-1 (1-202P), N-terminal truncated form of AGK, Flag-tagged (UniProt Q53H12); assay: co-IP; lysates of HEK293T cells transfected with NDUFS2-HA, NDUFA10-HA and AGK-Flag or AGK-1-Flag
T3 sequence: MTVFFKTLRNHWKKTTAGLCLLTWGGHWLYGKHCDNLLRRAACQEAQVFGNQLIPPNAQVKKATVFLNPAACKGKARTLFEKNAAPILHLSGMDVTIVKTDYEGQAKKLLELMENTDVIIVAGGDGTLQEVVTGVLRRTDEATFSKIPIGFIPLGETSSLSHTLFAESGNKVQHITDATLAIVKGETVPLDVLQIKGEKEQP

[2] = target: T4, Acylglycerol kinase (AGK), full-length, Flag-tagged (UniProt Q53H12); assay: as above
T4 sequence: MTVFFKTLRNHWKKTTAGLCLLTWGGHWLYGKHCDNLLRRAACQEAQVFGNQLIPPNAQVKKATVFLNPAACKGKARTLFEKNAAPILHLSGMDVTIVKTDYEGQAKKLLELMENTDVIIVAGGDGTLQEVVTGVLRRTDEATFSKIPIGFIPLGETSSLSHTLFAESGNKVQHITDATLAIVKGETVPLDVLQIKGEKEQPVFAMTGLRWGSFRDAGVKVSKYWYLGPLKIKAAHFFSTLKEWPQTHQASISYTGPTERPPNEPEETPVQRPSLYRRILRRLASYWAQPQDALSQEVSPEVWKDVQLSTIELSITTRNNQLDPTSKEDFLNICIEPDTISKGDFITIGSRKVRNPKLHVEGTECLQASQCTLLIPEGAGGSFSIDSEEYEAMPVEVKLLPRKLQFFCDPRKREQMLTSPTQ

Row | binding (AGK peptide 2 (93M-120I)) | binding (AGK peptide 1 (59Q-92G)) | binding [1] | binding [2] | Substance
1 | binds | binds | – | – | NDUFA10 (as used in the peptide ELISA) (from UniProt O95299 36-355)
2 | – | – | binds | binds | NDUFA10-HA (from UniProt O95299 36-355)
